Assay results reported in article doi:10.1101/592923.
Where a chain is given by its changes, count along the chain named. Names and notes keep the numbering of the source. No constants are given. Whether binding was seen depends on the method and setting. In cells and extracts the contact can be indirect. Some entries that bind do so weakly or less than the wild type.

By UniProt entry, the sequences of proteins in these tests, tags left out.
UniProt Q00416: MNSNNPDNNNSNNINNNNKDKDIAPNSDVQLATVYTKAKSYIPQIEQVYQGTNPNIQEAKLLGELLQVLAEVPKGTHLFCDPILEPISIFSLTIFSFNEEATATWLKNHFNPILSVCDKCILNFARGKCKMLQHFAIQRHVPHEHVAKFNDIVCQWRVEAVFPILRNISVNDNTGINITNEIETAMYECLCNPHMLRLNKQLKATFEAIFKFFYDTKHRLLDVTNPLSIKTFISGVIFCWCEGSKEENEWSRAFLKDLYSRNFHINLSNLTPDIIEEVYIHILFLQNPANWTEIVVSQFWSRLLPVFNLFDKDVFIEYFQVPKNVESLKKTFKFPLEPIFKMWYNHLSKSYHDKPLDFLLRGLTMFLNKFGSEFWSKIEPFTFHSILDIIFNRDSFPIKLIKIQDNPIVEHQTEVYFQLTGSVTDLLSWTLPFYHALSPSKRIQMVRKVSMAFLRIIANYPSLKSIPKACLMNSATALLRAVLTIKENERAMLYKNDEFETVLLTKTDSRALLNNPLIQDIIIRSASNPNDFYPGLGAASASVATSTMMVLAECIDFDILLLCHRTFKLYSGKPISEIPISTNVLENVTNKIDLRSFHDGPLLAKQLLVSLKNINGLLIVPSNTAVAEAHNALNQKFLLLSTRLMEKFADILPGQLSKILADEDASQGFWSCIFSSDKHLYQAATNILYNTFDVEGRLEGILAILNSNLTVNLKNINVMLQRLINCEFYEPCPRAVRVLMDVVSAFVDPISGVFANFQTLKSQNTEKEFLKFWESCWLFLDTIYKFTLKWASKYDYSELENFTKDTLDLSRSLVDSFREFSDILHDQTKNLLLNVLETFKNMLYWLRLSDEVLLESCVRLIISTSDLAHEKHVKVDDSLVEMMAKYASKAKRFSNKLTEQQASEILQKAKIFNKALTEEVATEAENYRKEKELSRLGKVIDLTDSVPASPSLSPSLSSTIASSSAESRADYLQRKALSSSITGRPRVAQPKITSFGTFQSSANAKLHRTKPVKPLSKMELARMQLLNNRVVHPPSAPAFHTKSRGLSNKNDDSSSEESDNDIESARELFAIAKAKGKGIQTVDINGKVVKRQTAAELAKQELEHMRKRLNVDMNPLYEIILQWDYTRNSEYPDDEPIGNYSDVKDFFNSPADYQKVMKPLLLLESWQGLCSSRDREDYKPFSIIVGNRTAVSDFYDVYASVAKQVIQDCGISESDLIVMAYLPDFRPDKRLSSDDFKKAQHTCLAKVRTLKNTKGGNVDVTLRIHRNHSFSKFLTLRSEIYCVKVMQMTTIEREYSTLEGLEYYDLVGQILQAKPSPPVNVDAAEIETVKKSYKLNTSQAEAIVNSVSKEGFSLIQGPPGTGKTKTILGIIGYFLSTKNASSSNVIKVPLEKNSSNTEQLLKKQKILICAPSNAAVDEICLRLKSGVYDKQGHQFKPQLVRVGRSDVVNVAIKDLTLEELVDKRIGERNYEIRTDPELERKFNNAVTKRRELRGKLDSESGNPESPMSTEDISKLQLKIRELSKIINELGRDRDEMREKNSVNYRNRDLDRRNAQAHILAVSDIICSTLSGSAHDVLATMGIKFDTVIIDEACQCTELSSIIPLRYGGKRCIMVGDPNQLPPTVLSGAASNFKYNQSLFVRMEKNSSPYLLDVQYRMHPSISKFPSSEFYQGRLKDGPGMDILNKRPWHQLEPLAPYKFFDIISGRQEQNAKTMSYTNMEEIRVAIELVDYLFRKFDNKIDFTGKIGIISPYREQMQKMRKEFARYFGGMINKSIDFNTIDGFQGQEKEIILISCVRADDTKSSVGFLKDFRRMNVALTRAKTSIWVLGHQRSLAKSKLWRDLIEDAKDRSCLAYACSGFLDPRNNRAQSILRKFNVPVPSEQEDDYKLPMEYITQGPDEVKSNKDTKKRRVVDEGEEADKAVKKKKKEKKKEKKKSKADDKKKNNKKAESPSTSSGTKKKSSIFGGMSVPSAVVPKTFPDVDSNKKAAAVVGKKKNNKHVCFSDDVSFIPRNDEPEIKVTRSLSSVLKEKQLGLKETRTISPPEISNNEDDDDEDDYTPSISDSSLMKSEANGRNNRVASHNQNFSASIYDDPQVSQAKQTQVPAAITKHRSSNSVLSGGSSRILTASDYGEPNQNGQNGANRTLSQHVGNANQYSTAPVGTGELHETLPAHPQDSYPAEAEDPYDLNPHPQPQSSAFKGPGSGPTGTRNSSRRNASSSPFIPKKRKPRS

T1: Nrd1 (S. cerevisiae (endogenous in yeast cells)) (UniProt P53617)
T1 sequence: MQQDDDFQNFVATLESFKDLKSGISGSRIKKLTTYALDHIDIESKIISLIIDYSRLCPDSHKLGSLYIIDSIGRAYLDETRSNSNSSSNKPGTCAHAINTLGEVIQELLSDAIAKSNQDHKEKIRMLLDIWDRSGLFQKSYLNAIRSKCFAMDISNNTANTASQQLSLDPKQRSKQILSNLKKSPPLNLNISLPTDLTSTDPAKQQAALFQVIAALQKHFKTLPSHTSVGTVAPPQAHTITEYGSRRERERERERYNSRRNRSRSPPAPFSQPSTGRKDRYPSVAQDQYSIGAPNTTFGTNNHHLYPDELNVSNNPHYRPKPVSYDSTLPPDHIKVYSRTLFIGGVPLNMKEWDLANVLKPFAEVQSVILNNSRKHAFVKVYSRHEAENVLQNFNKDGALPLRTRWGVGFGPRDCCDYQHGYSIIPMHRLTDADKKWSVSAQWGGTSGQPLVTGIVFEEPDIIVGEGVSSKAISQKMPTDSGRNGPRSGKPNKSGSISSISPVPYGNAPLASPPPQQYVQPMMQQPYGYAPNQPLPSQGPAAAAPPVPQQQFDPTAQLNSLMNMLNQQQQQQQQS

T2: Nab3 (wildtype) (S. cerevisiae) (UniProt P38996)
T2 sequence: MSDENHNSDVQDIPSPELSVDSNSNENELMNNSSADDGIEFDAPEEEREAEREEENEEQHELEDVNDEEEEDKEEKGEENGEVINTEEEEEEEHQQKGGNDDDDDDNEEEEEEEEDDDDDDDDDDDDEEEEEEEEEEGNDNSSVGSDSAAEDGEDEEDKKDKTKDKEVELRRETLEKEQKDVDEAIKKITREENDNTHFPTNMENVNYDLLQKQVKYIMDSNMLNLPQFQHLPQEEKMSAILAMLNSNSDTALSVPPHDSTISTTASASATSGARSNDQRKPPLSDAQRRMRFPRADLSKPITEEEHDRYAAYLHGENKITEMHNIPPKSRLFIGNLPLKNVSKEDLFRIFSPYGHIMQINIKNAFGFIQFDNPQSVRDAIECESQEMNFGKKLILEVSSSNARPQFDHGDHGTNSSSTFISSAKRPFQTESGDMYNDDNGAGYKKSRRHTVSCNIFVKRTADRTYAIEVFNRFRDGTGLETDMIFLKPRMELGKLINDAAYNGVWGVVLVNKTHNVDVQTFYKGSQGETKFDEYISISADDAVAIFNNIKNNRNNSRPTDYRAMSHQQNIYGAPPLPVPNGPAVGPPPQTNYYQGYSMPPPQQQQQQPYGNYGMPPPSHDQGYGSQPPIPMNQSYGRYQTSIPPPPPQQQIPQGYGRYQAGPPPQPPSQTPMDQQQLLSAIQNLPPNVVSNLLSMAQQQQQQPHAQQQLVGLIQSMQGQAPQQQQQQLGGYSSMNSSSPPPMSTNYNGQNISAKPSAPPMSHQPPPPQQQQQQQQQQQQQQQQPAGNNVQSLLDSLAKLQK

T3: Nab3-K363R (S. cerevisiae) (UniProt P38996)
T3 sequence: T2 sequence with K363R

B1: Nab3 (wildtype) (protein, UniProt P38996 1-802)
chain: T2 sequence
B2: Nab3-K363R (protein, UniProt P38996 1-802)
chain: T2 sequence with K363R
B3: Nrd1 (protein, UniProt P53617 1-575)
chain: T1 sequence

Experiments:
Assay in all cases: co-IP
[1] = molecular target: T1, Nrd1 (S. cerevisiae (endogenous in yeast cells))
[2] = molecular target: T2, Nab3 (wildtype) (S. cerevisiae)
[3] = molecular target: T3, Nab3-K363R (S. cerevisiae)

Molecule	binding [1]	binding [2]	binding [3]
Sen1 (from UniProt Q00416 1-2231)	binds		
B1	binds		
B2	binds		
B3		binds	binds
